Results as given in the supplement of paper PMC12067093, “Discovery and optimisation of a covalent ligand for TRIM25 and its application to targeted protein ubiquitination” (Chemical Science, 2025).
The other results are listed elsewhere or left out.

Sequences of proteins named here, by UniProt entry; tags and fusion partners are left off. A change or cut given only in a name is not applied to a line headed by its entry.
UniProt Q5JSP0: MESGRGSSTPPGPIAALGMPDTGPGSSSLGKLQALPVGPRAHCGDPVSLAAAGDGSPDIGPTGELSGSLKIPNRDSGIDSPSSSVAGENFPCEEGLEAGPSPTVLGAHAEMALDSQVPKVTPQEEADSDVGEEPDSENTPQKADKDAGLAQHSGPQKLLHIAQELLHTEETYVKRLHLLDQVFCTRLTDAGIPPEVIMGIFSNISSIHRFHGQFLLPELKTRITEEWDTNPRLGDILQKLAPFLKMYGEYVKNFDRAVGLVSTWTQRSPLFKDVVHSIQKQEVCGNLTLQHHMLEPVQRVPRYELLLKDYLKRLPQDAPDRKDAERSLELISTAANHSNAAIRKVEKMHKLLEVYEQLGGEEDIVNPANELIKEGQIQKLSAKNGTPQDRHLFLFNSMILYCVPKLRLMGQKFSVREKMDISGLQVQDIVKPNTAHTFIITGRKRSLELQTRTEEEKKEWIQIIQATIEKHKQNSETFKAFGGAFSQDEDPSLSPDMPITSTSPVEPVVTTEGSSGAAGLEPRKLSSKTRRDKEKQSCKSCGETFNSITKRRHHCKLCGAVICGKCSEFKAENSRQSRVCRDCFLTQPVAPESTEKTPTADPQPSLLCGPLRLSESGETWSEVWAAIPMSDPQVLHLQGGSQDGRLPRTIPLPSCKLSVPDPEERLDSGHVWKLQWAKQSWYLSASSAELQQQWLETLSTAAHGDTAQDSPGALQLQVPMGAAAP
UniProt Q9NXK8: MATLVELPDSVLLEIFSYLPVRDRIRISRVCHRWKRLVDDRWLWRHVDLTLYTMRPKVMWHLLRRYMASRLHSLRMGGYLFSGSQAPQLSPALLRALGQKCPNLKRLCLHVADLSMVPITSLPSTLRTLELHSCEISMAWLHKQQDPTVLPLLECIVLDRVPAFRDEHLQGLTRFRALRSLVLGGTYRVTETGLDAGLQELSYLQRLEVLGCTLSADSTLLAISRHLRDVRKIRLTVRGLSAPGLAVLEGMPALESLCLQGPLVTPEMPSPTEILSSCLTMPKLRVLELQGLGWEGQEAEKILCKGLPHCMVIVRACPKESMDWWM
UniProt Q9UK61: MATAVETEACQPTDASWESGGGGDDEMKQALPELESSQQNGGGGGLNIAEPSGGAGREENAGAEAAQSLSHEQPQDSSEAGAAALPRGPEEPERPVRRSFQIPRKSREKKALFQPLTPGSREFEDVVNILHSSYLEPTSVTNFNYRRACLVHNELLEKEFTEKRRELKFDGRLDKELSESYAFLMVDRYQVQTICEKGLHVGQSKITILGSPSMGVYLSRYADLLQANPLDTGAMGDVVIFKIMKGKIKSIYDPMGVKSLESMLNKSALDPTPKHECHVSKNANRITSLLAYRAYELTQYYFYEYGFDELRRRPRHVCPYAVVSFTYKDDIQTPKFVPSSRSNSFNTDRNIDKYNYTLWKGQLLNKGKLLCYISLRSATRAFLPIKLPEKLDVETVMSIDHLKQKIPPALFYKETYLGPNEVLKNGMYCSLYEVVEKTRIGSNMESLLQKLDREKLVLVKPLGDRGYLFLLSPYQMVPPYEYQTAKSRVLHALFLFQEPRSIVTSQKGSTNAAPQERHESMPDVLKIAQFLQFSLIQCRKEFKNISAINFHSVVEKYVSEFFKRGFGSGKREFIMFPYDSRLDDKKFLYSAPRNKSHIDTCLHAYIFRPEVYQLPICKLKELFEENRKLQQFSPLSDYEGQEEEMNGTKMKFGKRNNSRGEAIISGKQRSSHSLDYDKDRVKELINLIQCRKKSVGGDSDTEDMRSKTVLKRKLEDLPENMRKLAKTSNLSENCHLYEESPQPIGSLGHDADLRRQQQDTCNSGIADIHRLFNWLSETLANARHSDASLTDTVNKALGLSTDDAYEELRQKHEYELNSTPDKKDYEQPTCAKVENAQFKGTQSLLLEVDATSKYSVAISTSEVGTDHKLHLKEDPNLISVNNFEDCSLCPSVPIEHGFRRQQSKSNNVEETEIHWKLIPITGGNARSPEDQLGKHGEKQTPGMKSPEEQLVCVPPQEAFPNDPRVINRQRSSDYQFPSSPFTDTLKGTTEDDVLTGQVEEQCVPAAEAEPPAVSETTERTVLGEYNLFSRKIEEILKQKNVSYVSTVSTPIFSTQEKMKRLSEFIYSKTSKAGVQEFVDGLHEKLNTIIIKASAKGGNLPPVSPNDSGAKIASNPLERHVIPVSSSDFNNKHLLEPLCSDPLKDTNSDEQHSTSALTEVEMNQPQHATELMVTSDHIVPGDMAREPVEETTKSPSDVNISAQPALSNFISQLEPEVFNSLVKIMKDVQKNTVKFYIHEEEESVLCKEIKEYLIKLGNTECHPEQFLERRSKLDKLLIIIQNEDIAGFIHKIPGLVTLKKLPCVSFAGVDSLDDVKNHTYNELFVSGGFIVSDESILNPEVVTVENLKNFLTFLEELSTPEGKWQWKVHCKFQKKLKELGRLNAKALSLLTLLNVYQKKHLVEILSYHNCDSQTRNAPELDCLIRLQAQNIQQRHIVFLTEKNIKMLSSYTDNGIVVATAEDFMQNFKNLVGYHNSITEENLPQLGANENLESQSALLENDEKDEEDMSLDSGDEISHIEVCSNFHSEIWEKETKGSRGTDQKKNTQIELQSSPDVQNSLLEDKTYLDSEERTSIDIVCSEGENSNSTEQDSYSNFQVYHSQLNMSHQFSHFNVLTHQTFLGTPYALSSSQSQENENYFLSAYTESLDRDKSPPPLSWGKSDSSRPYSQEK
UniProt P22570: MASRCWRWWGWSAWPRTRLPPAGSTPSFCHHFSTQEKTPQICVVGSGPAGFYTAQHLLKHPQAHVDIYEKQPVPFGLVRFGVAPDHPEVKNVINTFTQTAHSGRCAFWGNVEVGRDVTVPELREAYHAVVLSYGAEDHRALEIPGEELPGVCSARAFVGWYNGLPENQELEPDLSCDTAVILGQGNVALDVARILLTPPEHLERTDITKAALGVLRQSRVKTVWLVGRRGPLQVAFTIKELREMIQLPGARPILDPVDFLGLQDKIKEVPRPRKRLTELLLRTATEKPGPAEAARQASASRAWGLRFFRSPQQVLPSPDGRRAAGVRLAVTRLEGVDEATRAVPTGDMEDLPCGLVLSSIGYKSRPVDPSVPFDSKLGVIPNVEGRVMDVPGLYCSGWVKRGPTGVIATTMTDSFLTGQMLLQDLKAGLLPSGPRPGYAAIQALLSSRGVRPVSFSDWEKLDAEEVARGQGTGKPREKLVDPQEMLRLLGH
UniProt Q52LJ0: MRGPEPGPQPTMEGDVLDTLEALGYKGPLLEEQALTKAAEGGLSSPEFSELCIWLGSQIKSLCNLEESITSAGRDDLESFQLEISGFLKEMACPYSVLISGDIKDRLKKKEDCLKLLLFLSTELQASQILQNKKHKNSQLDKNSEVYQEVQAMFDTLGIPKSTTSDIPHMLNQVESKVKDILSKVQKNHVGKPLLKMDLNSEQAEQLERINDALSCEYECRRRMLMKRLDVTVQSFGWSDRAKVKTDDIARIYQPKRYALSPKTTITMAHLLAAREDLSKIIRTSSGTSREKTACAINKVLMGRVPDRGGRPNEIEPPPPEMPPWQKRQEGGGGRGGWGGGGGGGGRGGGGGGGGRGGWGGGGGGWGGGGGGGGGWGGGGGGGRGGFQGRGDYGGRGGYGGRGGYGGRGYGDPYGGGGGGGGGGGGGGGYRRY
UniProt Q53R41: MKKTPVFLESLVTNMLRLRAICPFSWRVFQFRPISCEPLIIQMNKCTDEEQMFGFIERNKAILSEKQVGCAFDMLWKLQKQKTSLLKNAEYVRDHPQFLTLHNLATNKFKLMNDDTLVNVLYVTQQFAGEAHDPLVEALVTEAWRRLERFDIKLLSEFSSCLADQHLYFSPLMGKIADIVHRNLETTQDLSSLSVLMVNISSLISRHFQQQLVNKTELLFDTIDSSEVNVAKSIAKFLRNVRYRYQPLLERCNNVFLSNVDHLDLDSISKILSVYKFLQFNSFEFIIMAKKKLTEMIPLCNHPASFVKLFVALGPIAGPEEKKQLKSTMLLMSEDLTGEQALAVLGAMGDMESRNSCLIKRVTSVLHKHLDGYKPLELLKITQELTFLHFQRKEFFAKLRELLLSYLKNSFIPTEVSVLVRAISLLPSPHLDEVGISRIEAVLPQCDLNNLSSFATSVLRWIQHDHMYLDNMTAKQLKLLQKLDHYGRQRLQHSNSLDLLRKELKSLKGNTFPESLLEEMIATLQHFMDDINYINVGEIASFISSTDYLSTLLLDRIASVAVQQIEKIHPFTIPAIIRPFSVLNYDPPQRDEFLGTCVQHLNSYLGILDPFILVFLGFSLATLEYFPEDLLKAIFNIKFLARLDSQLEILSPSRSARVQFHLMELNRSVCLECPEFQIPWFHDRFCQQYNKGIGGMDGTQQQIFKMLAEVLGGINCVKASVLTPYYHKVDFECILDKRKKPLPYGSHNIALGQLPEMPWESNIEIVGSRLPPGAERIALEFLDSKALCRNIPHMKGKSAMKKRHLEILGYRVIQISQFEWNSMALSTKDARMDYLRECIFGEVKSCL
UniProt P0C2W1: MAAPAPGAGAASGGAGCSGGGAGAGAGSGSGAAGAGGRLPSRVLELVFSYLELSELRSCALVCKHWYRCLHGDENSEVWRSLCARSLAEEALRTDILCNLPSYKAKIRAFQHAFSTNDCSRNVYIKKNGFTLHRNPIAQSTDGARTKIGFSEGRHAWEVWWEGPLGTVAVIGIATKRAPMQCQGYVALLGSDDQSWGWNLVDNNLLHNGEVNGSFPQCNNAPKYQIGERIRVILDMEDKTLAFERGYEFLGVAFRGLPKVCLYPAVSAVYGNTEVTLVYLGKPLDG
UniProt P07332: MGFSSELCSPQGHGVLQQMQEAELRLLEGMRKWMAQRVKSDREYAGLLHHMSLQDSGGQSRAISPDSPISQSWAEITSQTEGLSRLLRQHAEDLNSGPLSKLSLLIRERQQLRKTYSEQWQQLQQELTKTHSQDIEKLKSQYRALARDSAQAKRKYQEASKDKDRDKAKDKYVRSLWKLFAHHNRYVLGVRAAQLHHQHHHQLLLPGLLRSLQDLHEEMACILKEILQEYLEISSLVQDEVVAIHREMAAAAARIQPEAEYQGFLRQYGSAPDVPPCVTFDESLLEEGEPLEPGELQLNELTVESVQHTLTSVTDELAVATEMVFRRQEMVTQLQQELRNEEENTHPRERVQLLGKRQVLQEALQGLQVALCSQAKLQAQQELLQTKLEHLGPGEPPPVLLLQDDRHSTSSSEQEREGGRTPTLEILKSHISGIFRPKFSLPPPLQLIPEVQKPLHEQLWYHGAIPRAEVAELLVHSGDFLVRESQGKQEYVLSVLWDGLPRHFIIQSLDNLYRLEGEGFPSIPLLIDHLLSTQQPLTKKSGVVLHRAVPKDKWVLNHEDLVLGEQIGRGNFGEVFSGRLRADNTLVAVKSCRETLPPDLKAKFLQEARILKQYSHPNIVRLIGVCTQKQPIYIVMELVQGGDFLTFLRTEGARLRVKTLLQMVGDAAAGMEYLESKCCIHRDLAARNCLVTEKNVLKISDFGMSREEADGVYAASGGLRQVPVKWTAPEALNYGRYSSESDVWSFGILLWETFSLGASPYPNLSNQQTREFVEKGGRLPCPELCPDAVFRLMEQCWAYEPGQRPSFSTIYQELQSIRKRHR
UniProt Q5HYJ3: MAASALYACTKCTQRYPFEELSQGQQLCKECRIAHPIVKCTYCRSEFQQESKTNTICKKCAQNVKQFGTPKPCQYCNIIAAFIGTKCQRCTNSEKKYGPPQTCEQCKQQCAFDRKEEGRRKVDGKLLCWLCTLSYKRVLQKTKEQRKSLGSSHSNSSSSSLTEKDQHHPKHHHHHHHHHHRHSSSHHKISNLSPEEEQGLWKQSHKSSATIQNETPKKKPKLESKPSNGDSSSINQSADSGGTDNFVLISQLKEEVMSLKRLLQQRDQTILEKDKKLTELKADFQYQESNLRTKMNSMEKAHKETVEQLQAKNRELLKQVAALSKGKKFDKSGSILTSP
UniProt P02675: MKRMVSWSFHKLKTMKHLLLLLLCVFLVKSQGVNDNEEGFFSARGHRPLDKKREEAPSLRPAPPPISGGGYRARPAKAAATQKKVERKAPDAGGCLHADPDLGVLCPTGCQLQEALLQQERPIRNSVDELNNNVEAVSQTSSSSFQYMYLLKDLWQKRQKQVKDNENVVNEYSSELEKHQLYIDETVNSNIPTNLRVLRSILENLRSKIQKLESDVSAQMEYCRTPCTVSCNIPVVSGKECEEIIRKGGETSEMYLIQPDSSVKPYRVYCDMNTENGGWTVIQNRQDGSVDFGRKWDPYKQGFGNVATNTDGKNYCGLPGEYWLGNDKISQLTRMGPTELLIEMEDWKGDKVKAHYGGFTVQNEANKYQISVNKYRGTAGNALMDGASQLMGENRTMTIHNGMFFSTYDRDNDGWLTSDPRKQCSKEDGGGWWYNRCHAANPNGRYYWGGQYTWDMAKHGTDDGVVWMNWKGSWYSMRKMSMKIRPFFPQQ

The targets below were run with Cc1cc(ccc1-c1ccccc1)C(=O)N1CCCN(CC1)C(=O)CCl [compound 10] (assay: probe-labelled cysteine peptide fold change vs DMSO (competition) (log2 fold change); higher = less target engagement (more negative = stronger competition)). Settings: 50 µM; THP-1; incubation time: 4 h.
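Also: competitive profiling in live THP-1 cells: cysteine peptides tagged with an iodoacetamide desthiobiotin (IA-DTB) probe, intensity after compound treatment relative to DMSO-treated cells.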

Target	probe-labelled cysteine peptide fold change
FGD3_Q5JSP0_284_QEVCGNLTLQHHMLEPVQR (UniProt Q5JSP0)	-0.0624
FBXW2_Q9UKT8_189_LWDVSTGQCVYGIQTHTCAAVK (UniProt Q9UKT8)	0.0932
FEM1B_Q9UK73_409_APDIECVLR (UniProt Q9UK73)	-0.925
FBXL12_Q9NXK8_310_GLPHCMVIVR (UniProt Q9NXK8)	-0.314
FAM98A_Q8NCA5_126_MLCVNAPPKK (UniProt Q8NCA5)	-0.0723
FBL_P22087_268_ANCIDSTASAEAVFASEVKK (UniProt P22087)	0.046
FAM208A_Q9UK61_734_TSNLSENCHLYEESPQPIGSLGHDADLRR (UniProt Q9UK61)	0.0465
FBXO3_Q9UK99_403_FHMACPTFR (UniProt Q9UK99)	-0.224
FBXO38_Q6PIJ6_303_NLHTIVLGACK (UniProt Q6PIJ6)	-0.116
FDXR_P22570_42_TPQICVVGSGPAGFYTAQHLLK (UniProt P22570)	0.167
FAM98B_Q52LJ0_216+220_INDALSCEYECR (UniProt Q52LJ0)	-0.505
FASTKD1_Q53R41_733_VDFECILDK (UniProt Q53R41)	-0.226
FBXO45_P0C2W1_98_TDILCNLPSYK (UniProt P0C2W1)	0.36
FASTKD2_Q9NYY8_366_SLILLDECSK (UniProt Q9NYY8)	-0.107
FES_P07332_372_QVLQEALQGLQVALCSQAK (UniProt P07332)	0.164
FAR2_Q96K12_170_HIDEVIYPCPVEPK (UniProt Q96K12)	0.181
FAM136A_Q96C01_53_QVHQCIER (UniProt Q96C01)	0.077
FBXL12_Q9NXK8_134_TLELHSCEISMAWLHK (UniProt Q9NXK8)	-0.0713

Target	probe-labelled cysteine peptide fold change
FBH1_Q8NFZ0_857_CHIEDLDFAEYILGTVHK (UniProt Q8NFZ0)	-0.0737
FAM76B_Q5HYJ3_73_PCQYCNIIAAFIGTK (UniProt Q5HYJ3)	0.0361
FAR1_Q8WVX9_305_NIMVYNCTTGSTNPFHWGEVEYHVISTFK (UniProt Q8WVX9)	0.677
FASN_P49327_1403_KSFYGSTLFLCR (UniProt P49327)	-0.263
FDX2_Q6P4F2_154_LGCQIVLTPELEGAEFTLPK (UniProt Q6P4F2)	0.216
FASN_P49327_1227_ACLDTAVENMPSLK (UniProt P49327)	-0.11
FCHSD2_O94868_33_HQAECDLLEDMR (UniProt O94868)	-0.173
FBN2_P35556_682_CDCPPGLAVGMDGR (UniProt P35556)	-0.0837
FASN_P49327_135_DPETLVGYSMVGCQR (UniProt P49327)	0.0666
FBN2_P35556_1052_EYETLCPR (UniProt P35556)	0.134
FASN_P49327_2369_AKLTPGCEAEAETEAICFFVQQFTDMEHNR (UniProt P49327)	-0.887
FGB_P02675_437_CHAANPNGR (UniProt P02675)	-0.386
FASN_P49327_1118+1127_FCFTPHTEEGCLSER (UniProt P49327)	-0.101
FAM76B_Q5HYJ3_60_CAQNVK (UniProt Q5HYJ3)	-0.271
FAM208A_Q9UK61_601_SHIDTCLHAYIFRPEVYQLPICK (UniProt Q9UK61)	-0.568
FASTKD1_Q53R41_716_MLAEVLGGINCVK (UniProt Q53R41)	-0.174
FAM208B_Q5VWN6_186_VIPILSTLNCALLETKK (UniProt Q5VWN6)	-0.813
